From PubChem BioAssay AID1347076 (National Center for Advancing Translational Sciences (NCATS), 2019)
The whole screen tested about 400,000 compounds, of which about 13,000 (3.2%) were called active. The shares of active, inactive and inconclusive entries below differ from those in the screen. The call rests on the fitted dose curve; in most records, active means well fitted cell-killing curve with a large enough effect; inconclusive means small, poorly fitted or top-dose-only effect, or effect the other way; inactive means flat fitted curve, though single readings scatter. Where the call is inconclusive, the potency comes from a doubtful curve fit.
On the % scale 0 is the no-effect control and ±100 the full control effect; potency means the concentration at half of the fitted maximal effect.

Assay: qHTS assay for MDR1-selective chemotherapeutics: Primary screen using the drug-selected MDR subline cells KB-V1; further: nearly all actives have a fitted effect of over 60% in size
Details: KB-V1 MDR cells viability, CellTiter-Glo, 72 h; activity change, negative = cytotoxicity: at 46.1 µM (top of the series)
Method in brief: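 Compound-treated KB-V1 multidrug-resistant cells, 72 h, 37 degrees C; viability by CellTiter-Glo. Fitted qHTS curves give the values.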
For `CCCCc1cc(=O)oc2c(CN(C)C)c(O)ccc12`, the Potency was “inactive”.
For `COC(=O)Cc1ccc(NC(=S)NCCCO)cc1`, the Potency was inconclusive: 14.6 µM [rising, single point].
For `COc1ccc(-c2ccc(SCC(=O)Nc3cccc(C(C)=O)c3)nn2)cc1OC`, the Potency was inconclusive: 23.1 µM [cytotoxic, single point].
With `CCN(C(=O)c1cc2c(=O)n3cccc(C)c3nc2n1CCCOC)C1CCCCC1` the Potency was inconclusive: 16.4 µM [cytotoxic, partial curve, poor fit].
In the case of `OC(c1ccccc1)(c1ccccc1)C1CCN(CCCOc2ccc(F)cc2)CC1`, the Potency is reported as inconclusive: 7.31 µM [cytotoxic, partial curve].
For `CCCNC(=O)CNC(=O)c1ccc(C#N)cc1`, the Potency was inconclusive: 25.9 µM [rising, partial curve, poor fit].
In the case of `CCOc1ccc(-c2nnc(NC(=O)CCCOc3cccc(C)c3)o2)cc1`, the Potency is reported as inconclusive: 20.6 µM [cytotoxic, single point].
In the case of `CCCCc1ccc(NC(=S)Nc2ccc(Nc3ccc(OC)cc3)cc2)cc1`, the Potency is reported as active: 16.4 µM.
For `COc1cc(/C=N/NC(N)=O)ccc1OCC(=O)Nc1cc(C)c(C)cc1Br`, the Potency was inconclusive: 20.6 µM [rising, single point].
With `O=C(O)c1cccc(NS(=O)(=O)c2ccc(Oc3ccc(S(=O)(=O)Nc4cccc(C(=O)O)c4)cc3)cc2)c1` the Potency was inconclusive: 29.1 µM [rising, single point].
With `CN=C(NC#N)SCC(=O)c1ccc(Cl)cc1Cl` the Potency was inconclusive: 29.1 µM [cytotoxic, single point].
With `CN(C)/C=N/N(C)c1ncccc1[N+](=O)[O-]` the Potency was inconclusive: 10.3 µM [rising, partial curve, poor fit].
With `COc1ccc(NC(=O)CN(C)C(=O)CN2C(=O)c3ccc([N+](=O)[O-])cc3C2=O)cc1` the Potency was inconclusive: 14.6 µM [rising, partial curve].
In the case of `COC(=O)c1ccc(Cn2nnc3c(=O)[nH]c(C4CCCN(S(=O)(=O)c5ccc(C)cc5)C4)nc32)cc1` (configuration not stated), the Potency is reported as “inactive”.
In the case of `COC(=O)[C@]12CCCCC=C1N(Cc1cccc3ccccc13)C(=O)[C@H](CC(=O)NCc1ccc(OC)c(OC)c1)C2`, the Potency is reported as inconclusive: 23.1 µM [cytotoxic, single point].
In the case of `CC(=O)N1CCCN(Cc2cn(-c3ccc(C)cc3)nc2-c2cccc(C)c2)CC1`, the Potency is reported as inconclusive: 8.2 µM [cytotoxic, partial curve].
In the case of `Cc1ccc(Nc2nc(N)c([N+](=O)[O-])c(N3CCCC(C)C3)n2)cc1C` (configuration not stated), the Potency is reported as inconclusive: 29.1 µM [cytotoxic, single point].
In the case of `Cc1[nH]nc(C(F)(F)F)c1N=NN1CCOCC1`, the Potency is reported as inconclusive: 29.1 µM [cytotoxic, single point].
In the case of `CCN(CC)c1ccc(C=Nc2ccc(C#N)cc2)c(O)c1`, the Potency is reported as “inactive”.
For `C/C=C/C(=O)Nc1cccc(C2=NOC3(C2)C[C@@H](C(N)=O)N(C(=O)c2cc([N+](=O)[O-])cc([N+](=O)[O-])c2)C3)c1` (some centres not stated), the Potency was inconclusive: 29.1 µM [rising, single point].
For `CN(C(=O)c1cccnc1)c1nc(-c2ccccc2)cs1`, the Potency was active: 20.6 µM.
For `CCN(CC)C1Oc2cc3c(cc2C(c2cc(OC)c(O)c(OC)c2)C1C)OCO3` (configuration not stated), the Potency was inconclusive: 29.1 µM [cytotoxic, single point].
In the case of `O=[N+]([O-])c1ccc2[nH]c(=S)[nH]c2c1`, the Potency is reported as “inactive”.
With `COc1ccc(Cc2nc3ccc(C(=O)N(C)C(C)c4ccon4)cc3o2)cc1` (configuration not stated) the Potency was inconclusive: 0.731 µM [cytotoxic, full curve, poor fit].
In the case of `O=[N+]([O-])c1nn(-c2ccccc2)n(O)c1=NCc1ccc2c(c1)OCO2`, the Potency is reported as “inactive”.
With `O=C(COc1cc(F)ccc1[N+](=O)[O-])NCC1CCCO1` (configuration not stated) the Potency was inconclusive: 5.8 µM [rising, full curve].
In the case of `CC(=O)CC1N(S(=O)(=O)c2ccc(C)cc2)c2ccccc2N1S(=O)(=O)c1ccc(C)cc1`, the Potency is reported as inconclusive: 14.6 µM [cytotoxic, partial curve].
For `CCCCCNC(=O)c1nc(-c2c(F)cccc2F)oc1-c1ccccc1`, the Potency was “inactive”.
In the case of `O=C(COc1ccc(S(=O)(=O)N2CCOCC2)cc1)NC1CCCC1`, the Potency is reported as inconclusive: 16.4 µM [cytotoxic, partial curve, poor fit].
In the case of `COc1ccc(C(=O)NC(C(=O)N2CCc3ccccc32)C(C)C)cc1` (configuration not stated), the Potency is reported as active: 8.2 µM.
In the case of `CCOC(=O)c1cnc(-n2nc(C)cc2C)nc1N1CC(C)OC(C)C1` (configuration not stated), the Potency is reported as inconclusive: 3.16 µM [cytotoxic, full curve].
With `CCOC(=O)C1(C)C=C(Nc2cccc(C(=O)O)c2)C(=O)N1c1cccc(C(=O)O)c1` (configuration not stated) the activity change, negative = cytotoxicity was inconclusive: -0.194%.
With `Cc1nn(C)cc1/C=N\NC(=O)c1ccc(Cn2cc(Cl)cn2)cc1` the Potency was inconclusive: 20.6 µM [rising, single point].
With `COc1ccc(S(=O)(=O)NC(=O)C2(C)CCN2C(=O)Cc2ccccc2Cl)cc1` (configuration not stated) the Potency was inconclusive: 0.291 µM [rising, full curve].
In the case of `COc1ccc(OC)c(CNC(=O)Cc2ccc(NC(=O)N3CCSc4ncccc43)cc2)c1`, the Potency is reported as “inactive”.
In the case of `COc1cc2c(cc1OC)C(COc1ccccc1OC)N(C(=O)COc1ccc(Cl)cc1)CC2` (configuration not stated), the Potency is reported as active: 20.6 µM.
In the case of `Cc1ccc(Cl)cc1N1CCN(C(=O)C2(S(=O)(=O)c3ccc(Cl)cc3)CC2)CC1`, the Potency is reported as inconclusive: 23.1 µM [cytotoxic, single point].
In the case of `COc1ccc(C(NC(=O)C(C)C)c2ccc3cccnc3c2O)cc1` (configuration not stated), the Potency is reported as inconclusive: 0.58 µM [cytotoxic, partial curve, poor fit].
In the case of `Clc1ccc(/C=N/Nc2ncnc3ccccc23)cc1Cl`, the Potency is reported as inconclusive: 29.1 µM [cytotoxic, single point].
With `O=C(/C=C/c1ccc(O)c(O)c1)c1ccc(S(=O)(=O)N2CCCCCC2)cc1` the Potency was “inactive”.
In the case of `O=C(Nc1ccc(Br)c(C(F)(F)F)c1)c1ccccc1`, the Potency is reported as active: 16.4 µM.
With `O=C(c1ccco1)N1CCN(C(=O)c2ccc(COc3ccc4c(c3)CCC4)o2)CC1` the Potency was active: 16.4 µM.
